Experimental findings from patent US20140322315A1, “CYSTEAMINE AND/OR CYSTAMINE FOR TREATING ISCHEMIC INJURY” (The Regents of the University of California, priority 2011, published 2014) are described below.

The subject of this data set is LAD artery ligation ischemia/reperfusion. In words: Myocardial ischemia/reperfusion (LAD artery ligation) in mice: infarct area, echocardiography. The class given is in vivo, mice (C57BL/6). How it is done:
To analyze ischemic damage and treatment with cysteamine a study in mice (C57BL/6-Male-12 weeks, 25 g) that are either pre-treated or naïve to cysteamine bitartrate was performed as follows.
Pre-treated animals received intra-peritoneal cysteamine, 60 mg/kg twice (120 mg/kg/day) 2 hours before surgery for LAD artery ligation. Following a 60 minute ligation period the obstruction was removed and another dose of cysteamine was given immediately at the time of reperfusion and also twice daily injections for 4 days following reperfusion. A control group received the same volumes of control IV solution injected instead of cysteamine. Acceptable volumes of blood were collected at baseline, and at predetermined time points after the ischemic insult in order to determine levels of surrogate markers of inflammation and plasma cysteamine. […] Before sacrifice, the LAD was re-occluded and Evan's Blue was injected through JVC in order to delineate the non-ischemic area. […] Echocardiography provided ventricular volume data as well as wall function. Hemodynamic studies provided muscle contractility data (specifically systolic data).
So far seven mice were studied. Four received control solution and 3 received cysteamine. […] This is a reduction of 13%.

Values joined by “and” are separate entries in the source; they are usually repeats but may differ in a detail not shown here. Equal values may be shown once.

As to `NCCS` [cysteamine, Cysteamine], the “AAR/LV (cysteamine) (%)” value was 23.86% (MEAN of 3 mice); 33.31% and 17.95% and 20.31% (individual mice (raw data)).
